Earlier results in US20250288591A1, “TRIMEPRAZINE FOR USE IN TREATING TRIGEMINAL NEURALGIA AND FOR REDUCING PAIN RELATED THERETO” (UNDAUNTED BIO, INC., priority 2022, published 2025).
At least one compound was matched to its structure with a doubt left.

Conditions: of 48 patients with refractory TN; cited from earlier work

## O=c1[nH]c2ccccc2n1C1CCN(CCCC(c2ccc(F)cc2)c2ccc(F)cc2)CC1 [pimozide, Pimozide]
  patients in whom pain control was achieved: 48 patients
